Experimental data taken from PMC8469962, “Unusual Bicyclo[3.2.1]Octanoid Neolignans from Leaves of Piper crocatum and Their Effect on Pyruvate Dehydrogenase Activity” (Plants, 2021).

Tested on: PDHE1α S300 phosphorylation
Experiment: Pyruvate dehydrogenase complex (PDH) cellular activity: immunofluorescence of p-PDH E1α (Ser300) in AD-293 cells
Format: cell-based, Human
Settings: 60 µM compound versus 5 mM DCA
Method: Point two percent gelatin was added to a black 96-well plate with a clear bottom and incubated for 1 h. Afterwards, the plate was washed with growth media. Human AD-293 cells, derived from the HEK293 cells, were seeded into black 96-well plates with a clear bottom and grown for 24 h. Compounds were then added and incubated for 24 h. The cells were then fixed with 2% paraformaldehyde, and permeabilized anti-PDHE1 pSer300 (Merk Millipore, Burlington, MA, AP1064) was added and incubated overnight. Next, the cells were washed and Alexa fluor 488, goat anti-rabbit ab (Invitrogen, Waltham, MA, A11008) was added with Hoechst 33,258 (Invitrogen, H3569) and incubated for 2 h. Finally, cells were washed, and the plates were measured in Operetta (PerkinElmer, Waltham, MA). The raw data were normalized for the pharmacological inhibitor control (5 mM dichloroacetate (DCA)) and percentage effect values using the software package Harmony High-Content Imaging and Analysis Software 3.1. Dose response curves were generated by plotting the percentage effect values and IC50 values were calculated via GraphPad Prism 6.

## C=CCC12C=C(OC)C(=O)C(OC)(C(c3cc(OC)c(OC4OC(CO)C(O)C(O)C4O)c(OC)c3)C1C)C2O [Compound 2, (1′R,2′R,3′S,7S,8R)-∆^5′^,8′-2′-hydroxy-3,5,3′,5′-tetramethoxyl-4′-oxo-8.1′7.3′-neolignan-4-O-β-D-glucopyranoside]
  consumption of compound, times lower than that of DCA: 83 times

## C=CCC1=CC2(OC)C(C)C(c3cc(OC)c(OC4OC(CO)C(O)C(O)C4O)c(OC)c3)C(OC)(C1=O)C2O [Compound 3, (1′R,2′S,3′R,7S,8R)-∆^5′^8′-2′-hydroxy-3,5,1′,3′-tetramethoxyl-4′-oxo-8.1′7.3′-neolignan-4-O-β-D-glucopyranoside]
  consumption of compound, times lower than that of DCA: 83 times
